Measured values: the supplement of paper PMC12067093, “Discovery and optimisation of a covalent ligand for TRIM25 and its application to targeted protein ubiquitination” (Chemical Science, 2025)
The other results are listed elsewhere or left out.

Chains of the proteins cited; added tags and fusions are not shown. Lines headed by an entry give the natural chain unless they say otherwise; changes in a name come on top.
UniProt Q9H0C8: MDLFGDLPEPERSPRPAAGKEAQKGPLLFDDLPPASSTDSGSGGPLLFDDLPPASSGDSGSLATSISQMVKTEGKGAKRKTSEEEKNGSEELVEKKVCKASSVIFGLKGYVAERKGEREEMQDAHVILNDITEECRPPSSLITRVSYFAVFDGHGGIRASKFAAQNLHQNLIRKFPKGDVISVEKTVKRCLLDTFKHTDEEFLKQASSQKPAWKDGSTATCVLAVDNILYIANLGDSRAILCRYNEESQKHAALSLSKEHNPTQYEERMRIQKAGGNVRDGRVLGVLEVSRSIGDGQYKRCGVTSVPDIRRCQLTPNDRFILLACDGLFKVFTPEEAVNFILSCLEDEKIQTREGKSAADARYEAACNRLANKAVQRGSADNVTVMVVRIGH
UniProt O43820: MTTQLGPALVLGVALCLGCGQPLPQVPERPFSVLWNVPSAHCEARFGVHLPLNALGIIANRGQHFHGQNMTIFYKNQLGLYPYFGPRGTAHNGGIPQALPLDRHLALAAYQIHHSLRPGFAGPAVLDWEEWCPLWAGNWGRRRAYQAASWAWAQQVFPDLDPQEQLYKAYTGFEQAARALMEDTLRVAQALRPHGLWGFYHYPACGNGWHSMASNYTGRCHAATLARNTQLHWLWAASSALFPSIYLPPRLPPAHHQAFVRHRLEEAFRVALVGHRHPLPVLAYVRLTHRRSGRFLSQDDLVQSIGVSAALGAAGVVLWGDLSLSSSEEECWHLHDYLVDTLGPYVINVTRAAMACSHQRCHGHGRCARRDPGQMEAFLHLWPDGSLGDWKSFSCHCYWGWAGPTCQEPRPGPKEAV
UniProt P11717, whole entry, looked up: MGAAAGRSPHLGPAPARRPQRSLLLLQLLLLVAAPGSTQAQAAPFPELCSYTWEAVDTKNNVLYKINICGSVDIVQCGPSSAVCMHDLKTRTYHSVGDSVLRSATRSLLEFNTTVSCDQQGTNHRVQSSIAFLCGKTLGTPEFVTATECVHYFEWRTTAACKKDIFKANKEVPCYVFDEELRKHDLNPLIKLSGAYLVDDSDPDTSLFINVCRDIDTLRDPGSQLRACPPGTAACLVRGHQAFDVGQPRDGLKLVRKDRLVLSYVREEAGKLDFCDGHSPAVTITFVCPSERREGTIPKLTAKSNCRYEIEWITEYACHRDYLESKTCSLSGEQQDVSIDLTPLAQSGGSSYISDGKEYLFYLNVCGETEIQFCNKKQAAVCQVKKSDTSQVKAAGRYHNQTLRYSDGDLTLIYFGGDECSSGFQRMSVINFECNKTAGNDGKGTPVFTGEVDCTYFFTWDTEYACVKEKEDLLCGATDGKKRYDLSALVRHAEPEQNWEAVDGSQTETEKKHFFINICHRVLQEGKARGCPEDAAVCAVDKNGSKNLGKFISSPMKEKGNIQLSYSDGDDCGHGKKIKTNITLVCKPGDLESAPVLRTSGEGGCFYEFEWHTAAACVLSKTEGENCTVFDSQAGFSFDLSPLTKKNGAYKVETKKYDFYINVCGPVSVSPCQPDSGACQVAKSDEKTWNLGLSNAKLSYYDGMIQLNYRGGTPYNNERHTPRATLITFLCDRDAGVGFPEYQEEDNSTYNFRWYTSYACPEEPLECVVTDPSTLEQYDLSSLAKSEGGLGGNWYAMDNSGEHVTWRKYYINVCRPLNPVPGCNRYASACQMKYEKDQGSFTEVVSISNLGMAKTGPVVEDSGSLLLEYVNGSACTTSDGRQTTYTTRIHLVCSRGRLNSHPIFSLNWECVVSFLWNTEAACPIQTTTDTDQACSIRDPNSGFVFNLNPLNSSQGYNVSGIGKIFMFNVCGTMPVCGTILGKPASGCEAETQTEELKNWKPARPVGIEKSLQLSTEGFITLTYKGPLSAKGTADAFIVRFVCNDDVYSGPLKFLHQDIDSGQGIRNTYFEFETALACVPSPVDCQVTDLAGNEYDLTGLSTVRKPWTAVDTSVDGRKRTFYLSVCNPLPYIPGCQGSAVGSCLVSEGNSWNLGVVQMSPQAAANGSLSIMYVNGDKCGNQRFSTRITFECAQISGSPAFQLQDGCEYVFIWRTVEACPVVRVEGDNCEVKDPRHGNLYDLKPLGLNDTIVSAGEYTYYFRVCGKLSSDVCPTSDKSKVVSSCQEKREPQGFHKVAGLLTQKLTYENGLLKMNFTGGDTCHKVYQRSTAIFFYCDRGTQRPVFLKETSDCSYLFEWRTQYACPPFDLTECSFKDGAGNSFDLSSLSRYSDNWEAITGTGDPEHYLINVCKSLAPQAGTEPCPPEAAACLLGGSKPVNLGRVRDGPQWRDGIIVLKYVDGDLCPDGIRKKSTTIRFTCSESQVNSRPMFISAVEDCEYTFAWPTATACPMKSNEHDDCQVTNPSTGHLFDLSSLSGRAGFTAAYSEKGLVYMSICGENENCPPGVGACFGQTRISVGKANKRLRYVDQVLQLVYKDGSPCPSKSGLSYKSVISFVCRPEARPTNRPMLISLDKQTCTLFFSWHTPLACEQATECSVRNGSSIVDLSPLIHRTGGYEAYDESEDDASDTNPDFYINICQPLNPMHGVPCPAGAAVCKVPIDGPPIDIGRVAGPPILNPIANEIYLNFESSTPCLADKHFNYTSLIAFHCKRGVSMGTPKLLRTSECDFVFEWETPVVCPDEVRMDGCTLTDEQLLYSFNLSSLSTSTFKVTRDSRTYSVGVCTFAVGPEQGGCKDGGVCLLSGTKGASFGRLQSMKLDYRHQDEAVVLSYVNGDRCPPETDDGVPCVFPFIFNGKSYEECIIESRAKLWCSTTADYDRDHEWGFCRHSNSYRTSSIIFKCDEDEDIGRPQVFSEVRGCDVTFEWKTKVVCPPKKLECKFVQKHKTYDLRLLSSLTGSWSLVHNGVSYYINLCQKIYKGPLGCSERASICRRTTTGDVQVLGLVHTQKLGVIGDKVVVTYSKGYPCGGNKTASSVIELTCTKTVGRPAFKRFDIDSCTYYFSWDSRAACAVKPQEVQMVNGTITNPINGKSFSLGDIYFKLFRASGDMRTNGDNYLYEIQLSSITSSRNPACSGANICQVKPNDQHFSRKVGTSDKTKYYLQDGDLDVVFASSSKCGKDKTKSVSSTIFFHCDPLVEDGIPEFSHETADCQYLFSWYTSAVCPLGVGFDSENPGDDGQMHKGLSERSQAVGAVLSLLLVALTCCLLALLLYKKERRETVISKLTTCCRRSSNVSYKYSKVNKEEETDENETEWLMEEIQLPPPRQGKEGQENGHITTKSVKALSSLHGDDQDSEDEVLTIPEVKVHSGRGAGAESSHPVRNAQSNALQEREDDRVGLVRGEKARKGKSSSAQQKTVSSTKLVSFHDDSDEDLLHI
UniProt Q96F46, whole entry, looked up: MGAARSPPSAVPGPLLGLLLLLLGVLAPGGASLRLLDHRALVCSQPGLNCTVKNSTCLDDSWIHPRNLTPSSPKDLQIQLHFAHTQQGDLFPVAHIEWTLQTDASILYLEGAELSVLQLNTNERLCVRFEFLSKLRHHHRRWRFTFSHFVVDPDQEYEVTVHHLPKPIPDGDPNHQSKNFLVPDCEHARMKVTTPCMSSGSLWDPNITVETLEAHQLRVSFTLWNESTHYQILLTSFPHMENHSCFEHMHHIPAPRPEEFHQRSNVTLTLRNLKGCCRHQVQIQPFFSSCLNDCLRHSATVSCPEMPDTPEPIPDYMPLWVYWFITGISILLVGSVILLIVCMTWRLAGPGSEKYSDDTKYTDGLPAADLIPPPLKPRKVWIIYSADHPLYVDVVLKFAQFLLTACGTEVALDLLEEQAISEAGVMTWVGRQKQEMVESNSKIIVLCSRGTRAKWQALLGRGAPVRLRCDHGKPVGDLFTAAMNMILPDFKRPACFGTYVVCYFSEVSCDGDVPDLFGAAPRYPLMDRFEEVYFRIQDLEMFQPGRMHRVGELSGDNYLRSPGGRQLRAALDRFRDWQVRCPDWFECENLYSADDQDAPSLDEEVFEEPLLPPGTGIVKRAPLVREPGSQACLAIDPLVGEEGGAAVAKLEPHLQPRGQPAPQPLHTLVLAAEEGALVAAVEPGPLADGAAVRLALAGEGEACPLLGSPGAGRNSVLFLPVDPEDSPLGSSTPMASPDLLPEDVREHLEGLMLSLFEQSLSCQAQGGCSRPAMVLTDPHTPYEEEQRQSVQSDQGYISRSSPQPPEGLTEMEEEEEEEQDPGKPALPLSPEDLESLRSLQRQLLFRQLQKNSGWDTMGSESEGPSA
UniProt A1L0T0: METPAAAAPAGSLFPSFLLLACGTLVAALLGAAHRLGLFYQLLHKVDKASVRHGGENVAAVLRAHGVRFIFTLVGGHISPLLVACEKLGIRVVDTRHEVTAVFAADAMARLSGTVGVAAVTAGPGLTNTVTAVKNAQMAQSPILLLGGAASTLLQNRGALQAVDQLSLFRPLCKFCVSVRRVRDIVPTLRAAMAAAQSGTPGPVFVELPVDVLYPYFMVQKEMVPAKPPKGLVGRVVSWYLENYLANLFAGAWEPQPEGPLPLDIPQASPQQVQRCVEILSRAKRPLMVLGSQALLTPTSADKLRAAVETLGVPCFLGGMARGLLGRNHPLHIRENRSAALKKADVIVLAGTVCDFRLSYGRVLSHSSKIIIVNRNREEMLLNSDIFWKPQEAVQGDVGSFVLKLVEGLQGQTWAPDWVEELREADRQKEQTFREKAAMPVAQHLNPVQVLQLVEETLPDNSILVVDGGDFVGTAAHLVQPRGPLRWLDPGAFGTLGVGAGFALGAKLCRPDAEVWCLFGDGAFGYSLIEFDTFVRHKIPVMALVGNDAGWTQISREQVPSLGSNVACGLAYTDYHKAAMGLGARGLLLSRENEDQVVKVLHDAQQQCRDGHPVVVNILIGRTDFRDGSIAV
UniProt P29218: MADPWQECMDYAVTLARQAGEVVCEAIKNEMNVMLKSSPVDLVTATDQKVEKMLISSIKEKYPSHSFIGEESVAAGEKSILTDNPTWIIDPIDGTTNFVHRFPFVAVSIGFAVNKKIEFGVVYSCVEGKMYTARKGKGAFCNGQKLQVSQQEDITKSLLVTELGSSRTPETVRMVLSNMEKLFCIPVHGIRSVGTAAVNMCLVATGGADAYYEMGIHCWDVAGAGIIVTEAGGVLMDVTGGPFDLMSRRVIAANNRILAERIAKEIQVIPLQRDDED
UniProt P50213: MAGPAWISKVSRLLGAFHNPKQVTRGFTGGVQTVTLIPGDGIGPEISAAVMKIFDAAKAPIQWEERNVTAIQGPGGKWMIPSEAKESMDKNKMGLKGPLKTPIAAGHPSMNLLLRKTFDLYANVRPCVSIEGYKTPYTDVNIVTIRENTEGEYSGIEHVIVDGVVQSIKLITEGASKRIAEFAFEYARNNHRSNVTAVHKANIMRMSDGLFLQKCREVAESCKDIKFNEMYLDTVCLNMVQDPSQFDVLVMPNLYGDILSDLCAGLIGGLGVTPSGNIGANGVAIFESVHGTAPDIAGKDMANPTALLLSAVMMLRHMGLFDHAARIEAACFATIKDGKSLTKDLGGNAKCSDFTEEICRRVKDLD
UniProt Q9BW83: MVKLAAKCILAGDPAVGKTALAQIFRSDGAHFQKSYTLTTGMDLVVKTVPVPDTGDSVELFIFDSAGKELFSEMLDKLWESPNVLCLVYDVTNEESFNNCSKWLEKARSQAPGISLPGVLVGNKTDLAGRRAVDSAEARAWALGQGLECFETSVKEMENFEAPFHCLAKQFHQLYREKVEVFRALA

Compound: CC1Cc2ccccc2N1C(=O)C1CCCN(C1)C(=O)CCl (mixture of isomers) [TRIM25 ligand 11 (diastereomer mixture)]
Assay: probe-labelled cysteine peptide fold change vs DMSO (competition) (log2 fold change); higher = less target engagement (more negative = stronger competition)
Settings: 10 µM; THP-1; incubation time: 4 h
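Note: competitive chemoproteomic profiling in live THP-1 cells with an iodoacetamide desthiobiotin (IA-DTB) probe, comparing probe-labelled peptide intensities in compound-treated cells against DMSO-treated controls.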

Question: With “ILKAP_Q9H0C8_221_DGSTATCVLAVDNILYIANLGDSR (UniProt Q9H0C8)” as the target, how does the “probe-labelled cysteine peptide fold change” value read?
Answer: Its value is -0.166.

Question: Which “probe-labelled cysteine peptide fold change” value does the source give for “HYAL3_O43820_361_CHGHGR (UniProt O43820)” here?
Answer: The value was 0.0116.

Question: How did the “probe-labelled cysteine peptide fold change” value turn out when “HTT_P42858_2792_VGALHGVLYVLECDLLDDTAK (UniProt P42858)” was run?
Answer: Its value is -0.094.

Question: Which “probe-labelled cysteine peptide fold change” value does the source give for “HUWE1_Q7Z6Z7_19_TPTEAPADCR (UniProt Q7Z6Z7)” here?
Answer: The value was -0.0697.

Question: Which “probe-labelled cysteine peptide fold change” value does the source give for “IGF2R_P11717_814_YYINVCRPLNPVPGCNR (UniProt P11717)” here?
Answer: Its value is -0.0433.

Question: How did the “probe-labelled cysteine peptide fold change” value turn out when “IL17RA_Q96F46_469_CDHGKPVGDLFTAAMNMILPDFK (UniProt Q96F46)” was run?
Answer: The value was 0.227.

Question: Which “probe-labelled cysteine peptide fold change” value does the source give for “ILVBL_A1L0T0_173_GALQAVDQLSLFRPLCK (UniProt A1L0T0)” here?
Answer: Its value is -0.0393.

Question: For “HUWE1_Q7Z6Z7_1401_AESPEEVACR (UniProt Q7Z6Z7)”, which “probe-labelled cysteine peptide fold change” value is on record?
Answer: The value was 0.0781.

Question: Which “probe-labelled cysteine peptide fold change” value does the source give for “IGF2R_P11717_731_ATLITFLCDR (UniProt P11717)” here?
Answer: The value was 0.165.

Question: For “IGF2R_P11717_420_YSDGDLTLIYFGGDECSSGFQR (UniProt P11717)”, which “probe-labelled cysteine peptide fold change” value is on record?
Answer: Its value is 0.136.

Question: For “IMPA1_P29218_8_ADPWQECMDYAVTLAR (UniProt P29218)”, which “probe-labelled cysteine peptide fold change” value is on record?
Answer: Its value is -0.265.

Question: For “HUWE1_Q7Z6Z7_2721_ENRDQSAQCTASK (UniProt Q7Z6Z7)”, which “probe-labelled cysteine peptide fold change” value is on record?
Answer: Its value is -0.544.

Question: “IDH3A_P50213_351_CSDFTEEICR (UniProt P50213)” was tested. Which “probe-labelled cysteine peptide fold change” value did it give?
Answer: The value was -0.00891.

Question: Which “probe-labelled cysteine peptide fold change” value does the source give for “HUWE1_Q7Z6Z7_2106_EDCSVLAFVLDHLLPHTQNAEDKDTPALAR (UniProt Q7Z6Z7)” here?
Answer: The value was 0.0682.

Question: How did the “probe-labelled cysteine peptide fold change” value turn out when “IGF2R_P11717_1270_LSSDVCPTSDK (UniProt P11717)” was run?
Answer: The value was -0.0313.

Question: “IFT27_Q9BW83_149_AWALGQGLECFETSVK (UniProt Q9BW83)” was tested. Which “probe-labelled cysteine peptide fold change” value did it give?
Answer: The value was -0.00671.
